Consider one substance from paper PMC11302875.

Amino acid sequences for entries named in this document (tags omitted).
UniProt Q99814: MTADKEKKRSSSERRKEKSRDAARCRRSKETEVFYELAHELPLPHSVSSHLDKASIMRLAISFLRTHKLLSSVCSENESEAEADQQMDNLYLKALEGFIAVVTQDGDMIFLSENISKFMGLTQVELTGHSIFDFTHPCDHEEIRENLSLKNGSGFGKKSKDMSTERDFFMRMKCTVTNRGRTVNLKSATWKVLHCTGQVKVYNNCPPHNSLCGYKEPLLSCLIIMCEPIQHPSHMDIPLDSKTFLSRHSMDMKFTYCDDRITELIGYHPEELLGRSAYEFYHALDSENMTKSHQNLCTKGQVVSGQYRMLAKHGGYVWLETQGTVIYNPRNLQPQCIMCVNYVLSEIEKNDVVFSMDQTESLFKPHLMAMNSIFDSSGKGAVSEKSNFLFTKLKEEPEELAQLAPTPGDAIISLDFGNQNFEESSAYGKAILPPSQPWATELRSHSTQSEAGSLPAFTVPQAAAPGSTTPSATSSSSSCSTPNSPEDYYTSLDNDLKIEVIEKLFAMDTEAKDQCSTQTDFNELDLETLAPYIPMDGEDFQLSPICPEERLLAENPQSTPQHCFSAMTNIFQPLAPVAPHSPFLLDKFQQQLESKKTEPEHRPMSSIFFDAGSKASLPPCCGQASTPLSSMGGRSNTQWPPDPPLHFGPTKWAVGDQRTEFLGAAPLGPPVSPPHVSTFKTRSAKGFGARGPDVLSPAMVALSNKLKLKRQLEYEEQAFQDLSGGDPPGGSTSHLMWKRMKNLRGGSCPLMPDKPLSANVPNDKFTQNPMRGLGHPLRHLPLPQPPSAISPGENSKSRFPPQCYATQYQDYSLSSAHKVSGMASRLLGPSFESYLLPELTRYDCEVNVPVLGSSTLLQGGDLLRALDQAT

These are yes or no findings as the source states them, for the method shown. Binding seen in cells or lysates may run through a third protein. Here binding means that the protein was enriched with, or labelled near, the bait; the list need not be complete.

In this assay the target is T1, NRF2 (human (endogenous in HUVECs)) (UniProt Q16236).
T1 sequence: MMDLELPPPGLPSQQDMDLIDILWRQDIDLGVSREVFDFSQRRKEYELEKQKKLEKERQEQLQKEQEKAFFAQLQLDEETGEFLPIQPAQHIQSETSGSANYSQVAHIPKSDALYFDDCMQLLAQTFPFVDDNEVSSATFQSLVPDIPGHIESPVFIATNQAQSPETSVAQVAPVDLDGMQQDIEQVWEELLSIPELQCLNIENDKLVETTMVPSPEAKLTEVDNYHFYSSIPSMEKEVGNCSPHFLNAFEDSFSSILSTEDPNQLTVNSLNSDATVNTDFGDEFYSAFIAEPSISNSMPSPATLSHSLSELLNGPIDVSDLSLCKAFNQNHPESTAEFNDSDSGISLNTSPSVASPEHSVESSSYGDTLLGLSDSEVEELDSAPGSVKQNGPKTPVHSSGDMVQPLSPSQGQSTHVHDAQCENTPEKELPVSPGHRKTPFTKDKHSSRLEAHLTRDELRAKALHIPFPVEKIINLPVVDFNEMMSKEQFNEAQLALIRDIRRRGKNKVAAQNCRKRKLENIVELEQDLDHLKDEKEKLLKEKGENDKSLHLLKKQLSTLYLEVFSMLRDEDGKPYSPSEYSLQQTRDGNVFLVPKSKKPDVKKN
The assay is described as follows: affinity purification with mass spectrometry; anti-NRF2 immunoprecipitation from HUVECs at 5 mM and 25 mM glucose, Coomassie Brilliant Blue staining, protein mass spectrometry.

Turning to HIF-2α (from UniProt Q99814 1-870), the binding result is “binds”.
